Measured values: patent US8772269B2, “Use of sulfonamide-including compounds in combination with angiogenesis inhibitors” (Eisai R&D Management Co., Ltd., priority 2004, dated 2014)

Tested on: 36 human cancer cell lines
Experiment: Cancer cell line panel experiment (correlation of antiproliferative activity)
Assay type: cell-based
Details: Pearson's correlation of 50% growth inhibitory concentration patterns over 36 cell lines; for correlation coefficient with CQS: vs CQS; for correlation coefficient with E7070: vs E7070; for correlation coefficient with E7820: vs E7820; for correlation coefficient with LY186641: vs LY186641; for correlation coefficient with LY295501: vs LY295501

O=C(Nc1ccc(Cl)c(Cl)c1)NS(=O)(=O)c1ccc2c(c1)CCO2 [LY295501, N-[[(3,4-dichlorophenyl)amino]-carbonyl]-2,3-dihydrobenzofuran-5-sulfonamide]
correlation coefficient with CQS: 0.82
correlation coefficient with E7070: 0.80
correlation coefficient with E7820: 0.82
correlation coefficient with LY186641: 0.81
correlation coefficient with LY295501: 1.00

Nc1ccc(S(=O)(=O)Nc2cnc3c(Cl)cccc3n2)cc1 [CQS, 2-sulfanylamido-5-chloroquinoxaline]
correlation coefficient with CQS: 1.00
correlation coefficient with E7070: 0.97
correlation coefficient with E7820: 0.96
correlation coefficient with LY186641: 0.92
correlation coefficient with LY295501: 0.82

O=C(Nc1ccc(Cl)cc1)NS(=O)(=O)c1ccc2c(c1)CCC2 [LY186641, N-[[(4-chlorophenyl)amino]carbonyl]-2,3-dihydro-1H-indene-5-sulfonamide]
correlation coefficient with CQS: 0.92
correlation coefficient with E7070: 0.93
correlation coefficient with E7820: 0.95
correlation coefficient with LY186641: 1.00
correlation coefficient with LY295501: 0.81

NS(=O)(=O)c1ccc(S(=O)(=O)Nc2cccc3c(Cl)c[nH]c23)cc1 [E7070, N-(3-chloro-1H-indol-7-yl)-4-sulfamoylbenzenesulfonamide]
correlation coefficient with CQS: 0.97
correlation coefficient with E7070: 1.00
correlation coefficient with E7820: 0.98
correlation coefficient with LY186641: 0.93
correlation coefficient with LY295501: 0.80

Cc1ccc(NS(=O)(=O)c2cccc(C#N)c2)c2[nH]cc(C#N)c12 [E7820, N-(3-cyano-4-methyl-1H-indol-7-yl)-3-cyanobenzenesulfonamide]
correlation coefficient with CQS: 0.96
correlation coefficient with E7070: 0.98
correlation coefficient with E7820: 1.00
correlation coefficient with LY186641: 0.95
correlation coefficient with LY295501: 0.82
